These are yes or no findings as the source states them, for the method shown. Some entries that bind do so weakly or less than the wild type.

The results in this text go back to patent US20130130379A1 (published 2013).

In test [1] the target is T1, Human CXCR4 (human, UniProt P61073-2 2-356).
T1 construct: also called hCXCR4
As to the kind of experiment: shotgun mutagenesis epitope mapping.

Test [2] concerns the target T1, Human CXCR4. Nature of the test: epitope mapping shown on a snake plot of human CXCR4.

B1: 238D4 (VHH)
VHH: EVQLMESGGGLVQAGGSLRLSCAASGRTFNNYAMGWFRRAPGKEREFVAAITRSGVRSGVSAIYGDSVKDRFTISRDNAKNTLYLQMNSLKPEDTAVYTCAASAIGSGALRRFEYDYSGQGTQVTVSS
As to B1, the binding entry with Human CXCR4 [1] and with Human CXCR4 [2] was “binds” each time.
